From PubChem BioAssay AID248 (DTP/NCI, 2004)
The list shows only some results of the screen, not a fair sample: it gathers tests that were run many times, whatever their T/C, doses with no T/C, and many T/C values between a quarter and a half above the control. Further doses and runs are listed elsewhere. T/C is the treated group as % of the vehicle group. Some entries give survivors of the animals treated and no T/C: the source holds a T/C of zero for them, seemingly a mark for toxic or unscored doses. Some doses without a T/C left all or most animals alive at the check, yet need not have been tolerated: the source hardly ever lists a survival T/C far under the control, and the zero likely stands for such cases as well. Counts of survivors are from the toxicity check (mostly the fifth day) where no day follows; animals may have died later. Schedules are NCI's codes, read here as Q, the interval in days (D) or hours (H), X, the number of doses. Some doses were run more than once; the values are given in rising order. Some schedules carry Z or #; the key to these is not given. For survival time, the PubChem record calls one and a half times the control and up active, and a quarter to a half above the control has no call in these data; cut-offs in other NCI protocols can differ. Some T/C values are followed by the survivors on the day toxicity was checked, most often the fifth; where none is given, no animal had died by that day.

Test system: L1210 leukemia ip in BDF1 mice, survival T/C
Test: NCI In Vivo Anticancer Drug Screen. Data for tumor model L1210 Leukemia (intraperitoneal) in B6D2F1 (BDF1) mice
Conditions: higher T/C = longer survival

In the case of `c1cc2n(n1)CCN2`, the T/C (T/C endpoint: mean survival time, dose: 150.0 mg/kg/injection, schedule: Q01DX009 (ip), vehicle: water) is reported as 126 % of control, the T/C (T/C endpoint: mean survival time, dose: 200.0 mg/kg/injection, schedule: Q01DX009 (ip), vehicle: saline) is reported as 126 [5 of 6 alive] and 142 % of control and the T/C (T/C endpoint: mean survival time, dose: 200.0 mg/kg/injection, schedule: Q01DX009 (ip), vehicle: water) is reported as 131 % of control. For the same compound, the T/C (T/C endpoint: mean survival time, dose: 200.0 mg/kg/injection, schedule: Q04DX003 (ip), vehicle: water) was 138 % of control, the survivor count (T/C endpoint: mean survival time, dose: 202.0 mg/kg/injection, schedule: Q01DX Z (ip), vehicle: methylcellulose (MC)) was 3 of 6 and the T/C (T/C endpoint: mean survival time, dose: 240.0 mg/kg/injection, schedule: Q04DX003 (ip), vehicle: water) was 142 % of control. For the same compound, the T/C (T/C endpoint: mean survival time, dose: 270.0 mg/kg/injection, schedule: Q04DX003 (ip), vehicle: saline) was 126 % of control, the survivor count (T/C endpoint: mean survival time, dose: 300.0 mg/kg/injection, schedule: Q01DX009 (ip), vehicle: water) was 1 of 6 and the T/C (T/C endpoint: mean survival time, dose: 400.0 mg/kg/injection, schedule: Q01DX001 (sc), vehicle: saline) was 126 % of control. The survivor count (T/C endpoint: mean survival time, dose: 400.0 mg/kg/injection, schedule: Q01DX009 (ip), vehicle: saline) was 2 of 6, the survivor count (T/C endpoint: mean survival time, dose: 400.0 mg/kg/injection, schedule: Q01DX009 (ip), vehicle: water) was 3 of 6 and the T/C (T/C endpoint: mean survival time, dose: 400.0 mg/kg/injection, schedule: Q04DX003 (ip), vehicle: saline, evaluated on day 30) was 100, 104, 127 [5 of 6 alive], 143, 153 % of control [5 of 6 alive]. The T/C (T/C endpoint: mean survival time, dose: 400.0 mg/kg/injection, schedule: Q04DX003 (ip), vehicle: saline, evaluated on day 45) was 147 % of control, the T/C (T/C endpoint: mean survival time, dose: 400.0 mg/kg/injection, schedule: Q04DX003 (oral), vehicle: saline) was 140 % of control and the T/C (T/C endpoint: mean survival time, dose: 400.0 mg/kg/injection, schedule: Q04DX003 (sc), vehicle: saline) was 130 % of control. For the same compound, the survivor count (T/C endpoint: mean survival time, dose: 666.0 mg/kg/injection, schedule: Q04DX003 (ip), vehicle: water) was 3 of 6, the T/C (T/C endpoint: mean survival time, dose: 800.0 mg/kg/injection, schedule: Q01DX001 (sc), vehicle: saline) was 131 % of control [5 of 6 alive] and the survivor count (T/C endpoint: mean survival time, dose: 800.0 mg/kg/injection, schedule: Q04DX003 (sc), vehicle: saline) was 4 of 6. For the same compound, the survivor count (T/C endpoint: mean survival time, dose: 1600.0 mg/kg/injection, schedule: Q01DX001 (oral), vehicle: saline) was 2 of 6, the survivor count (T/C endpoint: mean survival time, dose: 1600.0 mg/kg/injection, schedule: Q04DX003 (oral), vehicle: saline) was 1 of 6 and 2 of 6 and the T/C (T/C endpoint: median survival time, dose: 44.0 mg/kg/injection, schedule: Q03HX024 (ip), vehicle: saline) was 131 % of control. For the same compound, the T/C (T/C endpoint: median survival time, dose: 66.0 mg/kg/injection, schedule: Q03HX024 (ip), vehicle: saline) was 144 % of control, the T/C (T/C endpoint: median survival time, dose: 100.0 mg/kg/injection, schedule: Q01DX009 (oral), vehicle: saline) was 128 % of control [5 of 6 alive] and the T/C (T/C endpoint: median survival time, dose: 200.0 mg/kg/injection, schedule: Q01DX005 (ip), vehicle: saline) was 133 % of control. The T/C (T/C endpoint: median survival time, dose: 200.0 mg/kg/injection, schedule: Q01DX009 (ip), vehicle: saline) was 135 % of control, the T/C (T/C endpoint: median survival time, dose: 200.0 mg/kg/injection, schedule: Q01DX009 (oral), vehicle: saline) was 125 % of control and the T/C (T/C endpoint: median survival time, dose: 200.0 mg/kg/injection, schedule: Q04DX003 (ip), vehicle: Klucel (hydroxypropylcellulose) (HPC)) was 127 % of control. For the same compound, the T/C (T/C endpoint: median survival time, dose: 200.0 mg/kg/injection, schedule: Q04DX003 (ip), vehicle: saline, evaluated on day 5) was 126 % of control, the T/C (T/C endpoint: median survival time, dose: 200.0 mg/kg/injection, schedule: Q04DX003 (ip), vehicle: saline, evaluated on day 27) was 126 % of control and the T/C (T/C endpoint: median survival time, dose: 200.0 mg/kg/injection, schedule: Q04DX003 (ip), vehicle: saline, evaluated on day 30) was 111 % of control. The T/C (T/C endpoint: median survival time, dose: 200.0 mg/kg/injection, schedule: Q04DX003 (ip), vehicle: saline, evaluated on day 45) was 122 % of control, the T/C (T/C endpoint: median survival time, dose: 200.0 mg/kg/injection, schedule: Q04DX003 (sc), vehicle: saline) was 130 % of control and the T/C (T/C endpoint: median survival time, dose: 200.0 mg/kg/injection, schedule: Q08DX002 (ip), vehicle: saline, evaluated on day 30) was 120 and 141 % of control. The T/C (T/C endpoint: median survival time, dose: 200.0 mg/kg/injection, schedule: Q08DX002 (ip), vehicle: saline, evaluated on day 40) was 122 % of control, the T/C (T/C endpoint: median survival time, dose: 200.0 mg/kg/injection, schedule: Q08DX002 (ip), vehicle: saline, evaluated on day 45) was 127 % of control and the T/C (T/C endpoint: median survival time, dose: 200.0 mg/kg/injection, schedule: Q08DX002 (sc), vehicle: saline) was 125 % of control. The T/C (T/C endpoint: median survival time, dose: 300.0 mg/kg/injection, schedule: Q04DX003 (ip), vehicle: saline) was 135 % of control, the T/C (T/C endpoint: median survival time, dose: 300.0 mg/kg/injection, schedule: Q08DX002 (ip), vehicle: saline) was 129 % of control and the survivor count (T/C endpoint: median survival time, dose: 400.0 mg/kg/injection, schedule: Q01DX005 (ip), vehicle: saline) was 4 of 6. For the same compound, the survivor count (T/C endpoint: median survival time, dose: 400.0 mg/kg/injection, schedule: Q01DX009 (ip), vehicle: saline) was 2 of 6, the survivor count (T/C endpoint: median survival time, dose: 400.0 mg/kg/injection, schedule: Q01DX009 (oral), vehicle: saline) was 0 of 6 and 4 of 8 and the survivor count (T/C endpoint: median survival time, dose: 400.0 mg/kg/injection, schedule: Q01DX009 (sc), vehicle: saline) was 0 of 8. The T/C (T/C endpoint: median survival time, dose: 400.0 mg/kg/injection, schedule: Q04DX003 (ip), vehicle: saline) was 133 % of control, the T/C (T/C endpoint: median survival time, dose: 400.0 mg/kg/injection, schedule: Q08DX002 (ip), vehicle: saline, evaluated on day 30) was 139 % of control and the T/C (T/C endpoint: median survival time, dose: 400.0 mg/kg/injection, schedule: Q08DX002 (ip), vehicle: saline, evaluated on day 40) was 144 % of control. The T/C (T/C endpoint: median survival time, dose: 400.0 mg/kg/injection, schedule: Q08DX002 (sc), vehicle: saline) was 135 % of control, the T/C (T/C endpoint: median survival time, dose: 440.0 mg/kg/injection, schedule: Q04DX003 (ip), vehicle: saline) was 148 % of control and the T/C (T/C endpoint: median survival time, dose: 440.0 mg/kg/injection, schedule: Q08DX002 (ip), vehicle: saline) was 134 % of control. The T/C (T/C endpoint: median survival time, dose: 500.0 mg/kg/injection, schedule: Q04DX003 (ip), vehicle: saline) was 145 % of control [7 of 8 alive], the T/C (T/C endpoint: median survival time, dose: 600.0 mg/kg/injection, schedule: Q08DX002 (ip), vehicle: saline) was 125 % of control [6 of 8 alive] and the T/C (T/C endpoint: median survival time, dose: 660.0 mg/kg/injection, schedule: Q04DX003 (ip), vehicle: saline) was 144 % of control. The T/C (T/C endpoint: median survival time, dose: 666.0 mg/kg/injection, schedule: Q01DX001 (ip), vehicle: saline) was 134 % of control [9 of 10 alive], the survivor count (T/C endpoint: median survival time, dose: 800.0 mg/kg/injection, schedule: Q01DX005 (ip), vehicle: saline) was 0 of 6 and the survivor count (T/C endpoint: median survival time, dose: 800.0 mg/kg/injection, schedule: Q04DX003 (ip), vehicle: Klucel (hydroxypropylcellulose) (HPC)) was 4 of 6. The survivor count (T/C endpoint: median survival time, dose: 800.0 mg/kg/injection, schedule: Q04DX003 (ip), vehicle: saline) was 5 of 8, the survivor count (T/C endpoint: median survival time, dose: 800.0 mg/kg/injection, schedule: Q04DX003 (oral), vehicle: saline) was 4 of 8 and 6 of 6 and the survivor count (T/C endpoint: median survival time, dose: 800.0 mg/kg/injection, schedule: Q04DX003 (sc), vehicle: saline) was 6 of 8. For the same compound, the survivor count (T/C endpoint: median survival time, dose: 800.0 mg/kg/injection, schedule: Q08DX002 (ip), vehicle: saline) was 4 of 6, the survivor count (T/C endpoint: median survival time, dose: 800.0 mg/kg/injection, schedule: Q08DX002 (oral), vehicle: saline) was 0 of 6 and 5 of 8 and the survivor count (T/C endpoint: median survival time, dose: 800.0 mg/kg/injection, schedule: Q08DX002 (sc), vehicle: saline) was 6 of 8. The survivor count (T/C endpoint: median survival time, dose: 833.0 mg/kg/injection, schedule: Q04DX003 (ip), vehicle: saline) was 4 of 8 and the T/C (T/C endpoint: median survival time, dose: 1000.0 mg/kg/injection, schedule: Q01DX001 (ip), vehicle: saline) was 144 % of control [8 of 10 alive].
With `COc1ccc(Oc2cccc3c2CCN(C)C3)cc1` the survivor count (T/C endpoint: mean survival time, dose: 100.0 mg/kg/injection, schedule: Q04DX002 (ip), vehicle: Klucel (hydroxypropylcellulose) (HPC)) was 3 of 3, the survivor count (T/C endpoint: mean survival time, dose: 200.0 mg/kg/injection, schedule: Q04DX002 (ip), vehicle: Klucel (hydroxypropylcellulose) (HPC)) was 1 of 3 and the survivor count (T/C endpoint: mean survival time, dose: 400.0 mg/kg/injection, schedule: Q04DX002 (ip), vehicle: Klucel (hydroxypropylcellulose) (HPC)) was 0 of 3.
For `CN1C(=O)CC(c2ccc(N3C(=O)C=CC3=O)cc2)C1=O` (stereo not given), the survivor count (T/C endpoint: mean survival time, dose: 50.0 mg/kg/injection, schedule: Q04DX002 (ip), vehicle: saline with Tween-80) was 1 of 3, the survivor count (T/C endpoint: mean survival time, dose: 100.0 mg/kg/injection, schedule: Q04DX002 (ip), vehicle: saline with Tween-80) was 0 of 3 and the survivor count (T/C endpoint: mean survival time, dose: 200.0 mg/kg/injection, schedule: Q04DX002 (ip), vehicle: saline with Tween-80) was 0 of 3. For the same compound, the survivor count (T/C endpoint: mean survival time, dose: 400.0 mg/kg/injection, schedule: Q04DX002 (ip), vehicle: saline with Tween-80) was 0 of 3.
`CC(C)C(NC(=O)C(CSCc1ccccc1)NC(=O)OCc1ccccc1)C(N)=O` (stereo not given) was tested, and the survivor count (T/C endpoint: mean survival time, dose: 400.0 mg/kg/injection, schedule: Q01DX009 (ip), vehicle: Klucel (hydroxypropylcellulose) (HPC)) was 5 of 6.
